Some of the results follow.
Key:
Assay in all cases: NMR binding call after quantification (hit when 2 of 3 NMR criteria are met) (binary (1 = binding, 0 = not binding)); higher = binding
Conditions in all cases: RNA concentration 10 µM; fragment concentration 200 µM; 293 K
SARS-CoV-2 3'-UTR RNA = system: SARS-CoV-2 3'-UTR RNA
SARS-CoV-2 3_SL1 RNA = system: SARS-CoV-2 3_SL1 RNA
SARS-CoV-2 3_SL1+2 RNA = system: SARS-CoV-2 3_SL1+2 RNA
SARS-CoV-2 3_SL2 RNA = system: SARS-CoV-2 3_SL2 RNA
SARS-CoV-2 3_SL3base RNA = system: SARS-CoV-2 3_SL3base RNA
SARS-CoV-2 3_s2m RNA = system: SARS-CoV-2 3_s2m RNA

Measured: NMR binding call

CCS(=O)(=O)N1CCC(C(=O)O)CC1
0: all assays above

CCOc1ccc(NC(=O)c2cnccn2)cc1
0: all assays above

Cc1csc(NCC2CCCO2)n1 (stereo not given)
0: all assays above

CNC(=O)CN1CCNCC1
0: all assays above

N#CCC(=O)NC1CCCCC1
0: all assays above

CC1CCN(C(=O)CCCc2ccccc2)CC1
0: all assays above

CC(=O)Nc1ccc(NC(=O)C2CC2(C)C)cc1 (stereo not given)
0: all assays above

O=C(CC1CCCCC1)Nn1cnnc1
0: all assays above

COCC(=O)NCc1ccc(C)cc1
0: all assays above

CC1CCCC1NCCO (stereo not given)
0: all assays above

Cn1cc(CNC(=O)c2ccco2)cn1
0: all assays above

N#CCC(=O)N1CCC(Cc2ccccc2)CC1
0: all assays above

O=C(c1c(F)cccc1F)N1CCCCCC1
0: all assays above

Cc1ccc(NC(=O)c2ccco2)cc1O
0: all assays above

O=C(Nc1ccon1)c1cccc(Cl)c1
1: SARS-CoV-2 3'-UTR RNA | SARS-CoV-2 3_SL3base RNA
0: all other assays above

O=C(NCc1ccco1)Nc1ccc(F)cc1
0: all assays above

Cc1ccccc1OCC(=O)N(C)C
0: all assays above

CC(Oc1ccc(Cl)cc1)C(N)=O (stereo not given)
0: all assays above

CC(C)c1nccn1CC(=O)O
0: all assays above

NC(=O)c1ccccc1NC(=O)c1ccncc1
0: all assays above

Quoted at random: two compounds from above
CC(Oc1ccc(Cl)cc1)C(N)=O (stereo not given)
0: all assays above

CC(C)c1nccn1CC(=O)O
0: all assays above

Continuation.

CC(=O)c1ccc(N2CCC(C(N)=O)CC2)cc1
0: all assays above

COc1cccc(CN2CCC(C(N)=O)CC2)c1
0: all assays above

Cc1cnc(N2CCNCC2)s1.Cl.Cl
0: all assays above

CC(C)C(=O)Nc1nnn(C)n1
0: all assays above

Cc1cc(NC(=O)CCC2CCCCC2)no1
0: all assays above

O=C(NCCN1CCCC1=O)Nc1ccccc1
0: all assays above

CC(=O)N1CC(O)CC1C(=O)O (stereo not given)
0: all assays above

O=C(Nc1nnc(-c2ccco2)s1)C1CC1
0: all assays above

Oc1ccc(CNC2CCCCC2)cc1
0: all assays above

CCc1ncc(CNC)s1
0: all assays above

Reference: the supplement of paper PMC8426693
